PubChem BioAssay AID330 (DTP/NCI, 2004)
The list does not hold the whole screen: it is rich in T/C values a quarter to a half above the control, in often repeated tests (any T/C) and in doses without a T/C. Other doses and runs of a compound stand elsewhere. T/C: endpoint of the treated group in % of that of the vehicle group. Some doses have a count of surviving animals in place of a T/C: the source holds a T/C of zero for them, seemingly a mark for toxic or unscored doses. Some survivor counts are full or nearly so, which does not show that the dose was tolerated: survival well below the control is almost never listed, so the zero probably covers shortened survival too. Survivors were counted at the toxicity check, usually on the fifth day, unless a day is given; later deaths do not show. Schedule codes are those of the source, taken here to give the interval after Q, in days (D) or hours (H), and the number of doses after X. Some doses were run more than once; the results are listed from low to high. For survival time, this PubChem deposit counts one and a half times the control or more as active, and values a quarter to a half above the control carry no call in these data; other NCI protocols may use other cut-offs.

Tested on: P388 leukemia ip, CD2F1 mice, survival T/C
Experiment: NCI In Vivo Anticancer Drug Screen. Data for tumor model P388 Leukemia (intraperitoneal) in CD2F1 (CDF1) mice
Settings: T/C endpoint: median survival time, higher T/C = longer survival

C1CCC(C2CCCC[N-]2)[N-]C1.[Cl][Ru+2][Cl] (stereo not drawn)
survivor count (dose: 60.0 mg/kg/injection, schedule: Q01DX005 (ip), vehicle: saline): 1 of 6 | survivor count (dose: 120.0 mg/kg/injection, schedule: Q01DX005 (ip), vehicle: saline): 0 of 6 | survivor count (dose: 240.0 mg/kg/injection, schedule: Q01DX005 (ip), vehicle: saline): 0 of 6

C/C(=N\NC(N)=O)c1cccc(/C(C)=N/NC(N)=O)n1
T/C (dose: 100.0 mg/kg/injection, schedule: Q01DX009 (ip), vehicle: saline with Tween-80): 132 and 143 % of control | survivor count (dose: 200.0 mg/kg/injection, schedule: Q01DX009 (ip), vehicle: saline with Tween-80): 1 of 6 and 3 of 6

CSC(=S)n1nc(-c2cccs2)c(N=Nc2ccccc2)c1C(F)(F)F
survivor count (dose: 60.0 mg/kg/injection, schedule: Q01DX005 (ip), vehicle: saline with Tween-80): 3 of 6 | survivor count (dose: 120.0 mg/kg/injection, schedule: Q01DX005 (ip), vehicle: saline with Tween-80): 0 of 6 | survivor count (dose: 240.0 mg/kg/injection, schedule: Q01DX005 (ip), vehicle: saline with Tween-80): 0 of 6

CCN(CC)c1ccc2cc(S(=O)(=O)c3ccc(Cl)cc3)c(=O)oc2c1
survivor count (dose: 200.0 mg/kg/injection, schedule: Q01DX005 (ip), vehicle: saline with Tween-80): 5 of 6

CC12CCC3C(CCC4=CC(OC5OC(CO)C(O)C(O)C5O)CCC43C=O)C1(O)CCC2c1ccc(=O)oc1 (stereo not drawn)
survivor count (dose: 0.06 mg/kg/injection, schedule: Q01DX009 (ip), vehicle: saline + alcohol): 2 of 4

CC(=O)c1ccc(Cl)c(-n2cccc2)c1
survivor count (dose: 200.0 mg/kg/injection, schedule: Q01DX005 (ip), vehicle: Klucel (hydroxypropylcellulose) (HPC)): 5 of 5

CCOC(=O)c1nnc(-c2ccccc2)nc1Cl
survivor count (dose: 240.0 mg/kg/injection, schedule: Q01DX005 (ip), vehicle: Klucel (hydroxypropylcellulose) (HPC)): 0 of 6

Nc1nc2c(ncn2C2OC(CO)C(O)C2N)c(=O)[nH]1 (stereo not drawn)
survivor count (dose: 12.5 mg/kg/injection, schedule: Q01DX009 (ip), vehicle: saline with Tween-80): 6 of 6

CCOc1c(N=Nc2ccccc2OC)c(C)nn1C(=S)SC
survivor count (dose: 60.0 mg/kg/injection, schedule: Q01DX005 (ip), vehicle: Klucel + Tween-80): 1 of 6 | survivor count (dose: 120.0 mg/kg/injection, schedule: Q01DX005 (ip), vehicle: Klucel + Tween-80): 0 of 6 | survivor count (dose: 240.0 mg/kg/injection, schedule: Q01DX005 (ip), vehicle: Klucel + Tween-80): 0 of 6

COC1/C=C\C=C(/C)C(=O)NC2=CC(=O)C(NC3CC3)=C(CC(C)CC(OC)C(O)C(C)/C=C(/C)C1OC(N)=O)C2=O (stereo not drawn)
survivor count (dose: 150.0 mg/kg/injection, schedule: Q04DX002 (ip), vehicle: saline with Tween-80): 2 of 6 | survivor count (dose: 200.0 mg/kg/injection, schedule: Q04DX002 (ip), vehicle: saline with Tween-80): 1 of 6
